Test results from paper PMC10756753, “Redox-mediated activation of ATG3 promotes ATG8 lipidation and autophagy progression in Chlamydomonas reinhardtii” (Plant Physiology, 2023).
Positions count from the first letter of the chain named. Names may count otherwise. These are yes or no findings as the source states them, for the method shown. Where a sequence is shown, tags or fusion partners need not be part of it.

Experiments:
[1] = biological target: Saccharomyces cerevisiae ATG3 C234S catalytic mutant (Saccharomyces cerevisiae) (UniProt P40344); assay: non-reducing SDS-PAGE; purified ATG3 (about 2.5-3 ug) in 50 mM Tris-HCl pH 7.5, 25 °C, untreated or treated with DTTred, GSH, DTTox, H2O2 or Cu2+; stopped with βME-free loading buffer, 5 min at 65 °C; 12% or 15% gels, Coomassie; monomer against disulfide-linked dimer; both purified
[2] = biological target: Saccharomyces cerevisiae ATG3, wild type (Saccharomyces cerevisiae) (UniProt P40344); assay: condition: only at Eh beyond −345 mV in DTT redox buffer (pH 7.5); non-reducing SDS-PAGE; DTT redox titration, 50 mM Tris-HCl pH 7.5, 20 mM total DTT (DTTred + DTTox), 30 min at 25 °C; Eh beyond −345 mV (most reducing samples); 12% gels, Coomassie; both purified

B1: Saccharomyces cerevisiae ATG3 C234S catalytic mutant (enzyme, UniProt P40344 1-310)
chain: MIRSTLSSWREYLTPITHKSTFLTTGQITPEEFVQAGDYLCHMFPTWKWNEESSDISYRDFLPKNKQFLIIRKVPCDKRAEQCVEVEGPDVIMKGFAEDGDEDDVLEYIGSETEHVQSTPAGGTKDSSIDDIDELIQDMEIKEEDENDDTEEFNAKGGLAKDMAQERYYDLYIAYSTSYRVPKMYIVGFNSNGSPLSPEQMFEDISADYRTKTATIEKLPFYKNSVLSVSIHPSKHANVMKILLDKVRVVRQRRRKELQEEQELDGVGDWEDLQDDIDDSLRVDQYLIVFLKFITSVTPSIQHDYTMEGW
Question: B1 was tested. Which binding [1] did it give?
Answer: Its binding is “no binding”.

B2: Saccharomyces cerevisiae ATG3, wild type (enzyme, UniProt P40344 1-310, looked up)
chain: B1 chain with S234C
notes: ATG3 (E2-like enzyme of the ATG8 conjugation system), Saccharomyces cerevisiae; catalytic Cys234; also called ScATG3; ScATG3^WT
Question: For B2, which binding [2] is on record?
Answer: The binding was “no binding”.
